Source: publication PMC9681113
Residue numbers refer to the chain shown, from its start. These are yes or no findings as the source states them, for the method shown. In cells and extracts the contact can be indirect. A yes stands for co-enrichment or nearness to the bait. Other partners may have been found. Tags and fused reporters may be left off the sequences shown.

Tests used:
Assay in all cases: affinity purification with mass spectrometry; GFP pulldown with GFP Tag Immunomagnetic Beads from lysates of HEK-293 Flp-In T-REx cells expressing EGFP, EGFP-MAB21L1 or mutant EGFP-MAB21L1 after 12 hrs of 1 μg/ml tetracycline; three biological replicates; MaxQuant
[1] = molecular target: T1, GFP-tagged MAB21L1 Arg51Gln (human) (UniProt Q13394)
T1 sequence: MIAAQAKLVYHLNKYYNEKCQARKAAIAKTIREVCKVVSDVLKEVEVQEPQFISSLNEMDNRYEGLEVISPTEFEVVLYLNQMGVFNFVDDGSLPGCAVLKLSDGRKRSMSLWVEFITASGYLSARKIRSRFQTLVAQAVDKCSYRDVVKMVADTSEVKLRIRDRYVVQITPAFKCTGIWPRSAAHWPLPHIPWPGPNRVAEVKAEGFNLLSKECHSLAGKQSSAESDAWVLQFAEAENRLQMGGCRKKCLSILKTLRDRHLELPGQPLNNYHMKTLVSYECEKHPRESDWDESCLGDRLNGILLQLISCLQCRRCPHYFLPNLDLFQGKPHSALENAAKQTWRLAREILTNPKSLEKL

[2] = molecular target: T2, GFP-tagged wild-type MAB21L1 (human) (UniProt Q13394)
T2 sequence: T1 sequence with Q51R

[3] = molecular target: T3, GFP-tagged MAB21L1 Arg51Leu (human) (UniProt Q13394)
T3 sequence: T1 sequence with Q51L

Measured: binding

B1: PHKG2 (protein, UniProt P15735 1-406)
chain: MTLDVGPEDELPDWAAAKEFYQKYDPKDVIGRGVSSVVRRCVHRATGHEFAVKIMEVTAERLSPEQLEEVREATRRETHILRQVAGHPHIITLIDSYESSSFMFLVFDLMRKGELFDYLTEKVALSEKETRSIMRSLLEAVSFLHANNIVHRDLKPENILLDDNMQIRLSDFGFSCHLEPGEKLRELCGTPGYLAPEILKCSMDETHPGYGKEVDLWACGVILFTLLAGSPPFWHRRQILMLRMIMEGQYQFSSPEWDDRSSTVKDLISRLLQVDPEARLTAEQALQHPFFERCEGSQPWNLTPRQRFRVAVWTVLAAGRVALSTHRVRPLTKNALLRDPYALRSVRHLIDNCAFRLYGHWVKKGEQQNRAALFQHRPPGPFPIMGPEEEGDSAAITEDEAVLVLG
binds: all assays above

B2: EIF2A (protein, UniProt Q9BY44 1-585)
chain: MAPSTPLLTVRGSEGLYMVNGPPHFTESTVFPRESGKNCKVCIFSKDGTLFAWGNGEKVNIISVTNKGLLHSFDLLKAVCLEFSPKNTVLATWQPYTTSKDGTAGIPNLQLYDVKTGTCLKSFIQKKMQNWCPSWSEDETLCARNVNNEVHFFENNNFNTIANKLHLQKINDFVLSPGPQPYKVAVYVPGSKGAPSFVRLYQYPNFAGPHAALANKSFFKADKVTMLWNKKATAVLVIASTDVDKTGASYYGEQTLHYIATNGESAVVQLPKNGPIYDVVWNSSSTEFCAVYGFMPAKATIFNLKCDPVFDFGTGPRNAAYYSPHGHILVLAGFGNLRGQMEVWDVKNYKLISKPVASDSTYFAWCPDGEHILTATCAPRLRVNNGYKIWHYTGSILHKYDVPSNAELWQVSWQPFLDGIFPAKTITYQAVPSEVPNEEPKVATAYRPPALRNKPITNSKLHEEEPPQNMKPQSGNDKPLSKTALKNQRKHEAKKAAKQEARSDKSPDLAPTPAPQSTPRNTVSQSISGDPEIDKKIKNLKKKLKAIEQLKEQAATGKQLEKNQLEKIQKETALLQELEDLELGI
binds: all assays above

B3: RIOK3 (protein, UniProt O14730 1-519)
chain: MDLVGVASPEPGTAAAWGPSKCPWAIPQNTISCSLADVMSEQLAKELQLEEEAAVFPEVAVAEGPFITGENIDTSSDLMLAQMLQMEYDREYDAQLRREEKKFNGDSKVSISFENYRKVHPYEDSDSSEDEVDWQDTRDDPYRPAKPVPTPKKGFIGKGKDITTKHDEVVCGRKNTARMENFAPEFQVGDGIGMDLKLSNHVFNALKQHAYSEERRSARLHEKKEHSTAEKAVDPKTRLLMYKMVNSGMLETITGCISTGKESVVFHAYGGSMEDEKEDSKVIPTECAIKVFKTTLNEFKNRDKYIKDDFRFKDRFSKLNPRKIIRMWAEKEMHNLARMQRAGIPCPTVVLLKKHILVMSFIGHDQVPAPKLKEVKLNSEEMKEAYYQTLHLMRQLYHECTLVHADLSEYNMLWHAGKVWLIDVSQSVEPTHPHGLEFLFRDCRNVSQFFQKGGVKEALSERELFNAVSGLNITADNEADFLAEIEALEKMNEDHVQKNGRKAASFLKDDGDPPLLYDE
binds: all assays above

B4: HMGCS1 (protein, UniProt Q01581 1-520)
chain: MPGSLPLNAEACWPKDVGIVALEIYFPSQYVDQAELEKYDGVDAGKYTIGLGQAKMGFCTDREDINSLCMTVVQNLMERNNLSYDCIGRLEVGTETIIDKSKSVKTNLMQLFEESGNTDIEGIDTTNACYGGTAAVFNAVNWIESSSWDGRYALVVAGDIAVYATGNARPTGGVGAVALLIGPNAPLIFERGLRGTHMQHAYDFYKPDMLSEYPIVDGKLSIQCYLSALDRCYSVYCKKIHAQWQKEGNDKDFTLNDFGFMIFHSPYCKLVQKSLARMLLNDFLNDQNRDKNSIYSGLEAFGDVKLEDTYFDRDVEKAFMKASSELFSQKTKASLLVSNQNGNMYTSSVYGSLASVLAQYSPQQLAGKRIGVFSYGSGLAATLYSLKVTQDATPGSALDKITASLCDLKSRLDSRTGVAPDVFAENMKLREDTHHLVNYIPQGSIDSLFEGTWYLVRVDEKHRRTYARRPTPNDDTLDEGVGLVHSNIATEHIPSPAKKVPRLPATAAEPEAAVISNGEH
binds: all assays above

B5: SALL2 (protein, UniProt Q9Y467 1-1007)
chain: MSRRKQRKPQQLISDCEGPSASENGDASEEDHPQVCAKCCAQFTDPTEFLAHQNACSTDPPVMVIIGGQENPNNSSASSEPRPEGHNNPQVMDTEHSNPPDSGSSVPTDPTWGPERRGEESSGHFLVAATGTAAGGGGGLILASPKLGATPLPPESTPAPPPPPPPPPPPGVGSGHLNIPLILEELRVLQQRQIHQMQMTEQICRQVLLLGSLGQTVGAPASPSELPGTGTASSTKPLLPLFSPIKPVQTSKTLASSSSSSSSSSGAETPKQAFFHLYHPLGSQHPFSAGGVGRSHKPTPAPSPALPGSTDQLIASPHLAFPSTTGLLAAQCLGAARGLEATASPGLLKPKNGSGELSYGEVMGPLEKPGGRHKCRFCAKVFGSDSALQIHLRSHTGERPYKCNVCGNRFTTRGNLKVHFHRHREKYPHVQMNPHPVPEHLDYVITSSGLPYGMSVPPEKAEEEAATPGGGVERKPLVASTTALSATESLTLLSTSAGTATAPGLPAFNKFVLMKAVEPKNKADENTPPGSEGSAISGVAESSTATRMQLSKLVTSLPSWALLTNHFKSTGSFPFPYVLEPLGASPSETSKLQQLVEKIDRQGAVAVTSAASGAPTTSAPAPSSSASSGPNQCVICLRVLSCPRALRLHYGQHGGERPFKCKVCGRAFSTRGNLRAHFVGHKASPAARAQNSCPICQKKFTNAVTLQQHVRMHLGGQIPNGGTALPEGGGAAQENGSEQSTVSGARSFPQQQSQQPSPEEELSEEEEEEDEEEEEDVTDEDSLAGRGSESGGEKAISVRGDSEEASGAEEEVGTVAAAATAGKEMDSNEKTTQQSSLPPPPPPDSLDQPQPMEQGSSGVLGGKEEGGKPERSSSPASALTPEGEATSVTLVEELSLQEAMRKEPGESSSRKACEVCGQAFPSQAALEEHQKTHPKEGPLFTCVFCRQGFLERATLKKHMLLAHHQVQPFAPHGPQNIAALSLVPGCSPSITSTGLSPFPRKDDPTIP
binds: all assays above

B6: CEP55 (protein, UniProt Q53EZ4 1-464)
chain: MSSRSTKDLIKSKWGSKPSNSKSETTLEKLKGEIAHLKTSVDEITSGKGKLTDKERHRLLEKIRVLEAEKEKNAYQLTEKDKEIQRLRDQLKARYSTTTLLEQLEETTREGERREQVLKALSEEKDVLKQQLSAATSRIAELESKTNTLRLSQTVAPNCFNSSINNIHEMEIQLKDALEKNQQWLVYDQQREVYVKGLLAKIFELEKKTETAAHSLPQQTKKPESEGYLQEEKQKCYNDLLASAKKDLEVERQTITQLSFELSEFRRKYEETQKEVHNLNQLLYSQRRADVQHLEDDRHKTEKIQKLREENDIARGKLEEEKKRSEELLSQVQFLYTSLLKQQEEQTRVALLEQQMQACTLDFENEKLDRQHVQHQLHVILKELRKARNQITQLESLKQLHEFAITEPLVTFQGETENREKVAASPKSPTAALNESLVECPKCNIQYPATEHRDLLVHVEYCSK
binds: all assays above

B7: JAGN1 (protein, UniProt Q8N5M9 1-183)
chain: MASRAGPRAAGTDGSDFQHRERVAMHYQMSVTLKYEIKKLIYVHLVIWLLLVAKMSVGHLRLLSHDQVAMPYQWEYPYLLSILPSLLGLLSFPRNNISYLVLSMISMGLFSIAPLIYGSMEMFPAAQQLYRHGKAYRFLFGFSAVSIMYLVLVLAVQVHAWQLYYSKKLLDSWFTSTQEKKHK
binds: all assays above
